The results in this text go back to the supplement of paper PMC10849652.

Sequences of proteins named here, by UniProt entry; tags and fusion partners are left off. A change or cut given only in a name is not applied to a line headed by its entry.
UniProt Q86VD7: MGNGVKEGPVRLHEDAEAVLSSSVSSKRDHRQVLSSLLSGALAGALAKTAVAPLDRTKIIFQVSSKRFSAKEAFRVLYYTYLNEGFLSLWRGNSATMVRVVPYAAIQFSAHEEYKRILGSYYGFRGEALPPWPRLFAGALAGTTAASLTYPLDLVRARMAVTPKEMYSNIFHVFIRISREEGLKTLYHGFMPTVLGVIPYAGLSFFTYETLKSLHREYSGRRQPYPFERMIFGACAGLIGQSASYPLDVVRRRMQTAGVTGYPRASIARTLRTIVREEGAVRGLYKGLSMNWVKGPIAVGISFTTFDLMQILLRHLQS
UniProt P50443: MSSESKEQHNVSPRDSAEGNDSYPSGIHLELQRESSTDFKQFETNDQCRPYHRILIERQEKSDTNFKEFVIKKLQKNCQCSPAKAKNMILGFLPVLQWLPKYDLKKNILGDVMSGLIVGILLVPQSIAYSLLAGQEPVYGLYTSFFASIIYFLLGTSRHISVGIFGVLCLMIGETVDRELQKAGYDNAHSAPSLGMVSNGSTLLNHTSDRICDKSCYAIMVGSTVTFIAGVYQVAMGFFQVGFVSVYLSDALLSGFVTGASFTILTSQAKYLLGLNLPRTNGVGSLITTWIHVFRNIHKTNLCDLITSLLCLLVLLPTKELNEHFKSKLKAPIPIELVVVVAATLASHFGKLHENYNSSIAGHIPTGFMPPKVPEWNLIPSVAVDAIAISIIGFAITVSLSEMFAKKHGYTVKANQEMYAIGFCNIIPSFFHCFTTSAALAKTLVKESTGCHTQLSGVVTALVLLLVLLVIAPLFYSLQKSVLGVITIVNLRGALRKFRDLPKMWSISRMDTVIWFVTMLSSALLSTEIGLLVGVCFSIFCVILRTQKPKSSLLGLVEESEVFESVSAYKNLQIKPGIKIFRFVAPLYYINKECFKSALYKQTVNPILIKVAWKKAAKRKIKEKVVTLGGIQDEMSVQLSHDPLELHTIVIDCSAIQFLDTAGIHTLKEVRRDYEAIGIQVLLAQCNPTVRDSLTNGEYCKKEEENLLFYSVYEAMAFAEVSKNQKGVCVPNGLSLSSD
UniProt P53007, whole entry, looked up: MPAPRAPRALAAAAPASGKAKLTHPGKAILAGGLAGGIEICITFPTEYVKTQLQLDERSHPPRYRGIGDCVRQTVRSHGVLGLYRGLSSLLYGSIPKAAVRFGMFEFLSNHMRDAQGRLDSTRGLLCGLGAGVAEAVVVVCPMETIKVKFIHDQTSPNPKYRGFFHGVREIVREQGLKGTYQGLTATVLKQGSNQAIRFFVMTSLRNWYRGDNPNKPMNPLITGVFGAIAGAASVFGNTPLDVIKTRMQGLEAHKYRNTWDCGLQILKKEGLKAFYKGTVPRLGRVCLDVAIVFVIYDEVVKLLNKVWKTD
UniProt Q9BQT8: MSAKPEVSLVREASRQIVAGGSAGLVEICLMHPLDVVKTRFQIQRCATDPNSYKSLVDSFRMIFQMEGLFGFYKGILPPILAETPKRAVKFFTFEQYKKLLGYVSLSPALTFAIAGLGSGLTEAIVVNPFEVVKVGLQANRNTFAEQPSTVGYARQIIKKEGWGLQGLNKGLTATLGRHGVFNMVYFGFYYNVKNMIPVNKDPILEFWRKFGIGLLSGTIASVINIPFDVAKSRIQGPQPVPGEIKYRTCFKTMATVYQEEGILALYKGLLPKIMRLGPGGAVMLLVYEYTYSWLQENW
UniProt O95258: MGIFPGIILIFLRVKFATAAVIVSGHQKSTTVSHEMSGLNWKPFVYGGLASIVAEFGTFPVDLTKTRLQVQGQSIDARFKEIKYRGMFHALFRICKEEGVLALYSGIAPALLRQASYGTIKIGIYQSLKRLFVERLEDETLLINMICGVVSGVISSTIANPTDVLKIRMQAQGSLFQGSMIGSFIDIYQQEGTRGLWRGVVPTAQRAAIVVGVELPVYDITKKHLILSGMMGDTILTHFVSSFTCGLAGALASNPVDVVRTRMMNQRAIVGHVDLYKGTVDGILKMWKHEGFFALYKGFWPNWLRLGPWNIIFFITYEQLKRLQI
UniProt P48029: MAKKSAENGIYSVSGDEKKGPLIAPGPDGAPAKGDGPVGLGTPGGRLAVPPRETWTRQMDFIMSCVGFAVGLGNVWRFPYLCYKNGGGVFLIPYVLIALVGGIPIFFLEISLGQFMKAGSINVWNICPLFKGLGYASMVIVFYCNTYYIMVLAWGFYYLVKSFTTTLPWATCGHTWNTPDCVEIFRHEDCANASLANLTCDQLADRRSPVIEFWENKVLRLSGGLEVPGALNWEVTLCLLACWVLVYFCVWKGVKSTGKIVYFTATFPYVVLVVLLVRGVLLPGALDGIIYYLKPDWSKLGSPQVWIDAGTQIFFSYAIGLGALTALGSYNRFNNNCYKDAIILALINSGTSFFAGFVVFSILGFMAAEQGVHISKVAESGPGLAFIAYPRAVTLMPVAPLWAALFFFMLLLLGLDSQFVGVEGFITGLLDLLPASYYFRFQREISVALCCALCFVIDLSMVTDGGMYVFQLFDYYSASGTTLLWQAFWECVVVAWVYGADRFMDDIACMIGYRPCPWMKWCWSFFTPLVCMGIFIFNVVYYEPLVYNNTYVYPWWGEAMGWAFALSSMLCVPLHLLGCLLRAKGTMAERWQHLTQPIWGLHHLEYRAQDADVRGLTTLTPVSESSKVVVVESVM
UniProt Q96A29: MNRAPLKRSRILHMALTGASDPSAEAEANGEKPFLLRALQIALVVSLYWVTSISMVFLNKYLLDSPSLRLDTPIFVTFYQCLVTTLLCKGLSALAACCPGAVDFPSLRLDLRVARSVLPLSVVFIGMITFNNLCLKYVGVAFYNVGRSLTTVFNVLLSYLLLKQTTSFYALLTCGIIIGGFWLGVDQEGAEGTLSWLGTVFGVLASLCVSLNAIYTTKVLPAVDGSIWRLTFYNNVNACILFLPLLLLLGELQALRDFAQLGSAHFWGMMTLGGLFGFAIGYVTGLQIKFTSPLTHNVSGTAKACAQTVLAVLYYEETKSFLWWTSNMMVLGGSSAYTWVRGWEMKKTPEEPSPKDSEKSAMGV
UniProt Q15796, whole entry, looked up: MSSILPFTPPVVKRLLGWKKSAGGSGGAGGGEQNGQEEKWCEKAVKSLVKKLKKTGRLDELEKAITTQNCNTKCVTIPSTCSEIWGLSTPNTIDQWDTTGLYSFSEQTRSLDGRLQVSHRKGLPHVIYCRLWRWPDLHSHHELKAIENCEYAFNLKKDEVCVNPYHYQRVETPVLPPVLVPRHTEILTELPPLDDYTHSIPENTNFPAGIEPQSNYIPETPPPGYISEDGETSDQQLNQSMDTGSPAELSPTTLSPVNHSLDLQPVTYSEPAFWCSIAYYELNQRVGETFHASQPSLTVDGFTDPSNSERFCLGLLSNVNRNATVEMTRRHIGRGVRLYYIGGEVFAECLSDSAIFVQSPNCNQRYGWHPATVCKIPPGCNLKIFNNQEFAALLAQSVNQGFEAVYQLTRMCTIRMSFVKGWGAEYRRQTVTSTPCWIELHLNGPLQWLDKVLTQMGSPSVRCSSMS
UniProt Q8NBW4: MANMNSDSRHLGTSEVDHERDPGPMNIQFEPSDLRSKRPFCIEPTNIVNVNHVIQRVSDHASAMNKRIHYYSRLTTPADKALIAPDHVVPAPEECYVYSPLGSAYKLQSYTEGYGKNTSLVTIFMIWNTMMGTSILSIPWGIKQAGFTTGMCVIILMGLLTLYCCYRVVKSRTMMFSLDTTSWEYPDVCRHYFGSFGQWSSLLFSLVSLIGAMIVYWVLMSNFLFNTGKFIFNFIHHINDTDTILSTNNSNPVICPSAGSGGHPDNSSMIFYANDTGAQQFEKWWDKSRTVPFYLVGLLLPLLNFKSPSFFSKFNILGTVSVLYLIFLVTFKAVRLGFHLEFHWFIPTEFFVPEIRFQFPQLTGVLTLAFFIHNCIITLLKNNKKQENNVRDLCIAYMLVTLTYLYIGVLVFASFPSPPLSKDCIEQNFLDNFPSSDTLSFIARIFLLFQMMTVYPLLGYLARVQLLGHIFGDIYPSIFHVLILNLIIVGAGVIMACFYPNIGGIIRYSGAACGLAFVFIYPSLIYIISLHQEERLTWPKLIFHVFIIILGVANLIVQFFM
UniProt Q8TBP6: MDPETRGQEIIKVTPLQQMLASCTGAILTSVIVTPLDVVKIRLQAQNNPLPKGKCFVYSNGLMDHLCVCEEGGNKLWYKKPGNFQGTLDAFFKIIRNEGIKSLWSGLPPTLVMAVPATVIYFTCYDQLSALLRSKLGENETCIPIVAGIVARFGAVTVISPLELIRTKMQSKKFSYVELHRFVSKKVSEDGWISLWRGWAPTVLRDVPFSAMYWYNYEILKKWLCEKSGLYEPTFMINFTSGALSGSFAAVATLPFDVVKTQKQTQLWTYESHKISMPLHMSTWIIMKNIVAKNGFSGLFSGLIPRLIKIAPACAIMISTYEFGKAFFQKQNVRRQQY
UniProt Q70HW3: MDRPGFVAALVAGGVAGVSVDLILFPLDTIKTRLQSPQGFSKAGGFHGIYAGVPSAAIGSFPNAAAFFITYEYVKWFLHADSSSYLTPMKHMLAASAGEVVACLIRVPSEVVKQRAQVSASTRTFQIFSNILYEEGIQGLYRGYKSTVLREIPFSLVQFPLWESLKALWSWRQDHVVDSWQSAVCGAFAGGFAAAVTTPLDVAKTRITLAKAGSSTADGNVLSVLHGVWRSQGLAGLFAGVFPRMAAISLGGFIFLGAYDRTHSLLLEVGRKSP
UniProt O75387: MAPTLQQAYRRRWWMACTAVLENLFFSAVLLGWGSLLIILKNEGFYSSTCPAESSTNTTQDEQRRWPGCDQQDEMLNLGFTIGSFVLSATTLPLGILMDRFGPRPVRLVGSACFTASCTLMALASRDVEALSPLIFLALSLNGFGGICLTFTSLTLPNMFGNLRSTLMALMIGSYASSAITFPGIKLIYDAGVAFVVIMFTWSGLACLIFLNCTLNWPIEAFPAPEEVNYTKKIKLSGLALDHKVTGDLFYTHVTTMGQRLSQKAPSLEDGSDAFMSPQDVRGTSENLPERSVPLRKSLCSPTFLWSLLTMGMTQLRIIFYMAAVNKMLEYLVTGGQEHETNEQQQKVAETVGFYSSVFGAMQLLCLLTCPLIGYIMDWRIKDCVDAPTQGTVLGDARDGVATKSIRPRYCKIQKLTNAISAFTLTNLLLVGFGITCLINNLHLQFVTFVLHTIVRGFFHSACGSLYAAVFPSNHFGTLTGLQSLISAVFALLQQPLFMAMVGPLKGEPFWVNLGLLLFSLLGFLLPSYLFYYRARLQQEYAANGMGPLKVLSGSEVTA
UniProt O00193: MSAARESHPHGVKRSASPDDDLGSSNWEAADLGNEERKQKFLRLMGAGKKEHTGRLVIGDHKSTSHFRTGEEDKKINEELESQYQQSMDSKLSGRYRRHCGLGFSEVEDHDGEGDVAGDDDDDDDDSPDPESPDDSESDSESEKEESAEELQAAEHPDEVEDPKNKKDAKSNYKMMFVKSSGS
UniProt Q9HBR0: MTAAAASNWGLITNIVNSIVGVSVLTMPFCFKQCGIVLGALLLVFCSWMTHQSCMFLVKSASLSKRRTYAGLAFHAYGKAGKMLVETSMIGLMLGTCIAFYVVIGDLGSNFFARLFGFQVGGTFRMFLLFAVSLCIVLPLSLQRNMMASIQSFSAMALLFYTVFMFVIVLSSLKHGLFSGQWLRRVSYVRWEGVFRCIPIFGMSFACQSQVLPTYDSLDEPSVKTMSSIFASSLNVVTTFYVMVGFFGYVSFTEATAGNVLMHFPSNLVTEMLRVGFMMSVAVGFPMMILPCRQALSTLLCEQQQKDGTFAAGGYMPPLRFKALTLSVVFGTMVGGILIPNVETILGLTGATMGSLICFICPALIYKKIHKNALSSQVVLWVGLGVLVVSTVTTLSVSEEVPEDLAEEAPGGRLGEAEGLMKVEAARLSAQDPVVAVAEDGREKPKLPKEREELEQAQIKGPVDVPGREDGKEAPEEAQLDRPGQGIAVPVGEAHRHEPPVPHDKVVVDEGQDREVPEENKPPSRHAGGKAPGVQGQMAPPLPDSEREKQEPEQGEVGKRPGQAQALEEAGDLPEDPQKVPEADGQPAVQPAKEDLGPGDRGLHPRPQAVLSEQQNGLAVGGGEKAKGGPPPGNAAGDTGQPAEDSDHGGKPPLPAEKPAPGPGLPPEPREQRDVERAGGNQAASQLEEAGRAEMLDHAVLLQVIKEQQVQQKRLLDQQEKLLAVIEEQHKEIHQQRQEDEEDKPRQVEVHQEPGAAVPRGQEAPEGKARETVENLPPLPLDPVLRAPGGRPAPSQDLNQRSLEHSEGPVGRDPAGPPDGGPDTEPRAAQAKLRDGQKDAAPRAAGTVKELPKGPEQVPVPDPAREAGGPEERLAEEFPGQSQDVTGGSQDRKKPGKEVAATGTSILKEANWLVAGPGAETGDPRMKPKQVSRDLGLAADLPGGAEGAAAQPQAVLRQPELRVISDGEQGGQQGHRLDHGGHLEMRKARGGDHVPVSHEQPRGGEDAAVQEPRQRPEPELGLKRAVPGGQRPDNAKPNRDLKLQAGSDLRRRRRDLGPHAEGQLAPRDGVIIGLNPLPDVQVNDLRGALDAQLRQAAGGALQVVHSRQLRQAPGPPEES

The list shows a part of the results.

Compound in the assay: CC1=C(SC2=C1C(=N[C@H](C3=NN=C(N32)C)CC(=O)N)C4=CC=C(C=C4)Cl)C
Put plainly: log2 fold change, soluble protein after heating vs DMSO (PISA); higher = thermal stabilisation; K562 lysate, 10 uM; active = over 0.2 and 3.5 SD of the protein, either way, in both replicates (recomputed). The method, boiled down:
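The values are log-two fold changes in thermal stability compared with solvent controls and come from duplicates. They were obtained by TMTpro 16plex LC-MS/MS, with channel sums equalised, on the supernatant after 21,000xg for 90 min. That supernatant came from crude K562 extract at 1 mg/mL protein treated with 10 μM compound for 30 min, heated for 3 min across 48°C-58°C, pooled and brought to 0.5% NP-40 at 4°C.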
Regarding SLC25A42 (UniProt Q86VD7), the log2 fold change is inactive: 0.075.
For the target SLC26A2 (UniProt P50443), the log2 fold change was inactive: 0.164.
Take SLC25A1 (UniProt P53007): the log2 fold change was inactive: 0.06.
As to SLC25A21 (UniProt Q9BQT8), the log2 fold change was inactive: -0.015.
As for SLC25A14 isoform 3 (UniProt O95258), the log2 fold change was inactive: -0.055.
In the case of SLC30A7 (UniProt Q8NEW0) it was inactive: 0.14; in that of SLC6A8 (UniProt P48029), inactive: 0.03.
In the case of SLC35C1 (UniProt Q96A29) it was inactive: 0.107; in that of SMAD2 (UniProt Q15796), inactive: 0.024.
In the case of SLC38A9 (UniProt Q8NBW4) it was inactive: -0.126; in that of SLC25A40 (UniProt Q8TBP6), inactive: 0.003.
Regarding SLC25A26 (UniProt Q70HW3), the log2 fold change was inactive: -0.074.
Take SLC30A1 (UniProt Q9Y6M5): the log2 fold change was inactive: -0.001.
Take SLC43A1 (UniProt O75387): the log2 fold change was inactive: 0.012.
For SMAP (UniProt O00193) the value was inactive: -0.016; for SLC38A10 (UniProt Q9HBR0), inactive: 0.007.
